Values from PubChem BioAssay AID652243 (Drosophila RNAi Screening Center, 2013).

- Screen: 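Fly regulators of androgen-dependent reporter output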 (primary screen)
- System: Drosophila S2R+ cells
- Reagent: long dsRNA against Drosophila genes
- Duration: 72 h (48 h, then 24 h hormone)
- Conditions: synthetic androgen R1881 at 10 nM for 24 h
- Measured: 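Per-well raw luminescence of the androgen-driven firefly reporter and of the Renilla control, two replicates each, without normalisation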
- Reading the numbers: firefly reporter light: higher = more light from androgen-responsive reporter; Renilla control light: higher = more constitutive control signal (cell number, transfection)
- Call rule: 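Across duplicate plates, a knock-down whose log firefly/Renilla ratio shifted a set fold down or up from the GFP/LacZ control mean was a hit; the downward cut appears as both 1.5 and 3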
- Calls: active = hit: reporter lowered or raised; inactive = no hit
The screen tested about 24,000 reagents; this is a random part of those with a known target gene and a result. Over the whole deposit, 246 (1%) were called active. 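Plates not normalised; calls are printed but the firefly/Renilla ratio behind them is not deposited; fold cut for lowering reported inconsistently.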 Raw values vary from plate to plate and are shown uncorrected. A plus sign joins genes that one reagent is predicted to hit. The record does not give: the amount of reagent.

CG42372 + CG30100 [DRSC05602] scored firefly reporter light, replicate 1 = 86726; firefly reporter light, replicate 2 = 2.04e5; Renilla control light, replicate 1 = 2.42e5; Renilla control light, replicate 2 = 3.88e5; inactive.
Silencing of Spt5 [DRSC07556] resulted in: firefly reporter light, replicate 1 = 70677; firefly reporter light, replicate 2 = 99487; Renilla control light, replicate 1 = 1.09e6; Renilla control light, replicate 2 = 1.34e6; inactive.
Depletion of prel (preli-like) [DRSC07271] gave: firefly reporter light, replicate 1 = 8.42e5; firefly reporter light, replicate 2 = 4.60e5; Renilla control light, replicate 1 = 2.49e6; Renilla control light, replicate 2 = 1.78e6; inactive.
Depletion of CAP [DRSC06743] gave: firefly reporter light, replicate 1 = 1.16e6; firefly reporter light, replicate 2 = 5.18e5; Renilla control light, replicate 1 = 2.26e6; Renilla control light, replicate 2 = 1.07e6; inactive.
With knock-down of CAP [DRSC06744], the screen gave firefly reporter light, replicate 1 = 83544; firefly reporter light, replicate 2 = 1.00e5; Renilla control light, replicate 1 = 1.77e6; Renilla control light, replicate 2 = 2.44e6; inactive.
Depletion of CAP [DRSC06745] gave: firefly reporter light, replicate 1 = 4.38e5; firefly reporter light, replicate 2 = 2.12e5; Renilla control light, replicate 1 = 2.50e6; Renilla control light, replicate 2 = 1.74e6; inactive.
With knock-down of CAP [DRSC06846], the record shows firefly reporter light, replicate 1 = 3.44e5; firefly reporter light, replicate 2 = 2.57e5; Renilla control light, replicate 1 = 2.54e6; Renilla control light, replicate 2 = 2.22e6; inactive.

In a second layout: results already given.
{"gene":"Spt5","dsRNA":"DRSC07556","firefly reporter light, replicate 1":70677,"firefly reporter light, replicate 2":99487,"Renilla control light, replicate 1":1.09e6,"Renilla control light, replicate 2":1.34e6,"activity call":"inactive"}
{"gene":"prel (preli-like)","dsRNA":"DRSC07271","firefly reporter light, replicate 1":8.42e5,"firefly reporter light, replicate 2":4.60e5,"Renilla control light, replicate 1":2.49e6,"Renilla control light, replicate 2":1.78e6,"activity call":"inactive"}

Additional entries:
Knock-down of CG31016 [DRSC21359] came out at: firefly reporter light, replicate 1 = 7.10e5; firefly reporter light, replicate 2 = 7.00e5; Renilla control light, replicate 1 = 1.56e6; Renilla control light, replicate 2 = 2.01e6; inactive.
Against CG31016 [DRSC27353], the values are firefly reporter light, replicate 1 = 2.12e5; firefly reporter light, replicate 2 = 2.45e5; Renilla control light, replicate 1 = 4.02e5; Renilla control light, replicate 2 = 4.05e5; inactive.
Silencing of MtnC (Metallothionein C) [DRSC22879] gave: firefly reporter light, replicate 1 = 5.45e5; firefly reporter light, replicate 2 = 8.75e5; Renilla control light, replicate 1 = 1.41e6; Renilla control light, replicate 2 = 2.07e6; inactive.
Against CG1572 [DRSC19686], the values are firefly reporter light, replicate 1 = 1.56e5; firefly reporter light, replicate 2 = 2.31e5; Renilla control light, replicate 1 = 1.11e6; Renilla control light, replicate 2 = 1.25e6; inactive.
Silencing of CG11686 [DRSC14350] resulted in: firefly reporter light, replicate 1 = 41394; firefly reporter light, replicate 2 = 47635; Renilla control light, replicate 1 = 8.32e5; Renilla control light, replicate 2 = 1.04e6; inactive.
CG6845 [DRSC08576] gave firefly reporter light, replicate 1 = 6.48e5; firefly reporter light, replicate 2 = 7.51e5; Renilla control light, replicate 1 = 1.43e6; Renilla control light, replicate 2 = 1.36e6; inactive.
Knock-down of CG6845 [DRSC26319] resulted in: firefly reporter light, replicate 1 = 6.07e5; firefly reporter light, replicate 2 = 4.26e5; Renilla control light, replicate 1 = 7.71e5; Renilla control light, replicate 2 = 8.22e5; inactive.
